Legend:
U87 glioblastoma cells = test: Confocal analysis of cellular distribution of EYFP-hDAAO variants in transiently transfected U87 cells; assay type: cell-based, human
Description: Human U87 glioblastoma cells (ATCC) were cultured in DMEM supplemented with 10% fetal bovine serum, 1 mM sodium pyruvate, 2 mM L-glutamine, 1% non-essential amino acids, 1% penicillin/streptomycin, and 1% amphotericin B (Euroclone), at 37°C in 5% CO2. The cells were transfected either with the pEYFP-hDAAO-C3 construct (for the expression of the wild-type enzyme downstream of the enhanced yellow fluorescent protein, EYFP) (Sacchi et al., [2008], [2011]), the pEYFP-hDAAO(R120L)-C3, or the pEYFP-hDAAO(R120E)-C3 expression vectors. The latter constructs were obtained by mutagenesis using the QuikChange Lightning Site-Directed Mutagenesis Kit (Agilent), and the following primers: 5′-[…]-3′ and 5′-[…]-3′ for the R120E substitution, and 5-[…]-3′ and 5′-[…]-3′ for the R120L substitution.
For transient transfection, 2 ×10^4 cells were seeded into eight-well chamber slides (Sarstedt). At 24 h after seeding, cells were transfected with 2 μg plasmid DNA using a 4:1 ratio of FuGENE transfection reagent (Promega) to DNA. Then, 12.5 μL of transfection mix was added to 500 μL medium per well. Protein expression levels were monitored by using a fluorescence microscope (Olympus IX51) equipped with a FITC filter and by Western blot analysis using an anti-hDAAO antibody (Davids Biotechnologie) (Sacchi et al., [2008], [2011]).
At 24, 48, and 72 h after transfection, cells were washed twice with PBS and fixed with ice-cold 4% p-formaldehyde and 4% sucrose for 10 min at room temperature. After fixation, cells were washed twice with PBS and blocked by incubation in PBS supplemented with 0.2% Triton X-100 and 4% horse serum for 30 min at room temperature. Peroxisomes were stained using rabbit polyclonal anti-PMP70 (peroxisomal membrane protein 70, Sigma), diluted 1:500 in PBS, 0.1% Triton X-100, and 4% horse serum overnight at 4°C; they were then washed twice in PBS and 1% horse serum and incubated for 1 h at room temperature (light protected) with goat anti-rabbit Dylight 550 secondary antibodies (Abcam) diluted 1:400 in PBS, 0.1% Triton X-100, and 1.5% horse serum. Cells were then extensively washed in PBS and nuclei were stained with DRAQ5™ (Thermo Scientific) and diluted 1:500 in PBS for 10 min at room temperature in the dark. Cells were washed three times with PBS and stored in PBS at 4°C until imaging.
Immunostained cells were imaged using an inverted laser scanning confocal microscope (TCS SP5, Leica Microsystems), equipped with a 63.0 ×1.25 NA plan apochromatic oil immersion objective. Confocal image stacks were acquired using the Leica TCS software with a sequential mode to avoid interference between each channel and without saturating any pixel. Cells in 10–15 non-magnified optical fields were analyzed for each condition (i.e., different EYFP-hDAAO expression constructs at different times after transfection). The fluorescence signal corresponding to the overexpressed EYFP-hDAAO variants was monitored by excitation at 514 nm (yellow channel); the peroxisomal and nuclear cellular compartments were imaged by excitation at 546 nm (red channel) and 647 nm (blue channel), respectively.
U87 glioblastoma cells were transiently transfected with a pEYFP-hDAAO-C3 plasmid encoding for EYFP-hDAAO chimeric proteins harboring R, E, or L at position 120 of the flavoenzyme. […] A similar amount of transfected cells (expressing EYFP-hDAAO protein) was obtained for all three constructs (Table 4). The percentage of cells showing a cytosolic, peroxisomal, and nuclear localization of the flavoenzyme was determined by comparing the yellow fluorescence signal of EYFP-hDAAO variants with those of the markers PMP-70 (for peroxisomes) and DRAQ5™ dye (for nuclei, Figure 5). The amount of cytosolic wild-type EYFP-hDAAO decreased with time after transfection (28% of the signal is cytosolic at 72 h vs. 94% at 24 h), as did the amount of nuclear signal (Table 4 and Figure 6). […]

[1] = Standard DAAO activity assay of purified hDAAO variants (oxygen electrode, 28 mM D-alanine); assay type: biochemical; settings: purified protein, activity without vs with excess exogenous FAD
wild-type hDAAO = settings: apoprotein, no benzoate; ref Murtas et al. (2017); cited from earlier work

## R120L: hDAAO variant with Arg120 substituted by leucine (His-tagged from E. coli; EYFP-tagged in U87 cells)
U87 glioblastoma cells; 24 h after transfection
  T, transfected cells: 20.7%
U87 glioblastoma cells; 48 h after transfection
  T, transfected cells: 24.9%
U87 glioblastoma cells; 72 h after transfection
  T, transfected cells: 19.4%
[1]
  Holoenzyme content: 100%

## Cc1cc2nc3c(=O)[nH]c(=O)nc-3n(C[C@H](O)[C@H](O)[C@H](O)COP(=O)(O)OP(=O)(O)OC[C@H]3O[C@@H](n4cnc5c(N)ncnc54)[C@H](O)[C@@H]3O)c2cc1C [FAD]
wild-type hDAAO
  amplitude of fluorescence change, FAD binding, free form, first phase: 40%
  amplitude of fluorescence change, FAD binding, free form, second phase: 60%

## R120E: hDAAO variant with Arg120 substituted by glutamate (His-tagged from E. coli; EYFP-tagged in U87 cells)
U87 glioblastoma cells; 24 h after transfection
  T, transfected cells: 24.9%
U87 glioblastoma cells; 48 h after transfection
  T, transfected cells: 24.4%
U87 glioblastoma cells; 72 h after transfection
  T, transfected cells: 19.2%
[1]
  Holoenzyme content: 100%

## Wild-type: recombinant wild-type human D-amino acid oxidase (His-tagged from E. coli; EYFP-tagged in U87 cells)
U87 glioblastoma cells; 24 h after transfection
  T, transfected cells: 24.3%
U87 glioblastoma cells; 48 h after transfection
  T, transfected cells: 17.4%
U87 glioblastoma cells; 72 h after transfection
  T, transfected cells: 16.0%

Source: publication PMC6862323, “Substitution of Arginine 120 in Human D-Amino Acid Oxidase Favors FAD-Binding and Nuclear Mistargeting” (Frontiers in Molecular Biosciences, 2019)
